The experiment addresses T1, Tic55 (A. thaliana (endogenous in isolated chloroplasts)) (UniProt Q9SK50).
T1 sequence: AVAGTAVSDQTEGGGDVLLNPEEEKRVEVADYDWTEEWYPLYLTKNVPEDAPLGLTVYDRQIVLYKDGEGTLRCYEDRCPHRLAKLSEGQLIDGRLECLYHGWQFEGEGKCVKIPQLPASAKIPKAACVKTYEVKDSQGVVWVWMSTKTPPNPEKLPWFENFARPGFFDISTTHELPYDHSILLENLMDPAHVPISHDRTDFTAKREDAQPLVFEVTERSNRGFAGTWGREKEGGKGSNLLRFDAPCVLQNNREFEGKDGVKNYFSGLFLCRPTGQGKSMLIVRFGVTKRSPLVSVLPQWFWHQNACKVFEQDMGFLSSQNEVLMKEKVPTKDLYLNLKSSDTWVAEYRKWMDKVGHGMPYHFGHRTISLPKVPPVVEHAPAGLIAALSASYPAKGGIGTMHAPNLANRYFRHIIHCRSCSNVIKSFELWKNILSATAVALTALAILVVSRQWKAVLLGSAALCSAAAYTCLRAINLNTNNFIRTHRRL
The experiment is described as follows: co-IP; isolated chloroplasts of wild-type A. thaliana treated with 0.5 mM DSP (quenched with 50 mM glycine) and hypotonic buffer; membrane pellet solubilised in 25 mM HEPES-KOH pH 8.0, 50 mM KCl, 4% Tx-100, 20% glycerol; IP with anti-Tic55 antibody or preimmune serum and protein A, 4 °C; blots with anti-Tic110, anti-Hsp93, anti-Tic40.

The record followed here is paper PMC6073118.

These are yes or no findings as the source states them, for the method shown. In cells and extracts the contact can be indirect. Some binding calls cover weakened binding; strength is not graded here.

B1: Tic110 (protein, UniProt Q8LPR9 52-1016)
chain: SAASSDQLSVSTQAKNPGIHGNKKELTGLQPIVEKMTPPVRLATSAVVLAASLATGYGLGLRLAGSRNIAFGGAAVAGAAGGAVVYALNSAVPEVAAISLHNYVAEFEDPASVTKDDVEKIADRYGVNKGDEAFQAEICDIYCRYVTSVLPTEGQSLKGDEVAKIVKFKNALGIDEPDAAAMHMEIGRRIFRQRLETGEREGDAEQRRAFMRLVYVSALVFGDASSFLLPWKRVLKVTDAQVEIAIRENAKQLYAERLKLVGRDINVENLVDLRKSQLSFKLSDELAEDLFREHTRKVVVENISSALSILKSRTRAAKSLASVVEELEKVLEFNNLLVSLKSHSEADQFARGVGPISLIGDESDFERRMDDLKLLYRAYVTDALSGGRLEENKLVAMSQLRNILGLGKREAEAISVDVTSKSYRKRLANAVSSGDLEAQDSKAKYLQKLCEELHFDAQKAGAIHEEIYRQKLQQCVTDGELSDDNVAALLRLRVMLCIPQQTVDTAHAEICGTIFEKVVRDAISSGVDGYDAETRKSVRKAAHGLRLSRETAMSIASKAVRRVFTNYIRRARAAENRTDSAKELKKMIAFNTLVVTEMVADIKGESSDKAPEEDPVQEKEEDDEDEEWGSLESLRKTRPDKELAEKMGKPGQTEITLKDDLPDRDRIDLYKTYLLYCVTGEVTRIPFGAQITTKRDDSEYLLLNQLGGILGLSSKEIVNIHVGLAEQAFRQQAEVILADGQLTKARVEQLDELQKQVGLPQPQAEKVIKNITTTKMANAIETAVNQGRLNIKQIRELKEANVSLDSMIAVSLREKLFKKTVSDIFSSGTGEFDETEVYQTIPSDLSIDVEKAKRVVHDLAQSRLSNSLVQAVALLRQRNSKGVVLSLNDLLACDKAVPAEPMSWEVSEELSDLYAIYSKSDPKPAPEKVLRLQYLLGIDDSTATALREMEDGALSSAAEEGNFVF
On to B1, for which the binding result is recorded as “binds”.
